Source: patent US20040138412 (published 2004)

Assay: general procedure: Boc solid-phase peptide synthesis; PAM resin or thioester-generating resin; HBTU (in situ neutralization)
Details: coupling step

Substance	step yield [%]
Mouse Larc 1-31 (Ala) thioester + auxiliary I GSYRFL	92
Phe-Gly-Gly thioester + Nα-1-(2,4-methoxyphenyl)-2-mercaptoethane glycine-SYRFL	>98
TBP-A 1-67 (His) thioester + auxiliary II GSYRFL	87
Phe-Gly-Gly thioester + Nα-1-(4-methoxyphenyl)-2-mercaptoethane glycine-SYRFL	>98
Mouse Larc 1-31 (Ala) thioester + auxiliary II GSYRFL	85
MCP1 1-35 (Lys) thioester + auxiliary I GSYRFL	76
